According to PubChem BioAssay AID445 (National Center for Advancing Translational Sciences (NCATS), 2006):
The list shows a part of the results. Further columns of the screen follow, without active or inactive calls. Compounds called inactive in the main read-out are mostly missing here. Potencies come from curve fits of mixed quality, noted in brackets.

Test: IkB Signaling
Settings: ABC-DLBCL IkBa-CBG/CBR dual luciferase ratio (green luciferase fused to IkBa over red control in OCI-Ly3 lymphoma cells), 4 h; measured here: control luc red channel unless noted
Procedure, shortened: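 Curves were fitted separately to fusion (green), unfused (red) and ratio luminescence, then classed by r2, magnitude and activity. Cells: OCI-Ly3, 4 h compound plus doxycycline at 37C; 10 uM MG-132 defined full response.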

| Compound | AC50 |
| --- | --- |
| O=c1[nH]c(=O)n(C2CCCCC2)c(O)c1C1=Nc2ccccc2SC(c2ccccc2)C1 (stereo not given) | 15.8 µM [falling, partial curve] |
| COc1ccccc1NC(=O)C1=C(C)Nc2nc(SCc3ccccc3Cl)nn2C1c1ccccn1 (stereo not given) | 3.16 µM [falling, full curve] |
| CN(C)c1ccc(/C=C/c2noc(-c3ccccc3O)n2)cc1 | 0.631 µM [falling, full curve] |
| Cc1cccc(OCC(=O)N(Cc2ccc(C(C)(C)C)cc2)Cc2ccco2)c1 | 25.1 µM [falling, partial curve] |
| Cc1ccc(C(c2cccc(Br)c2)c2c(C)[nH]c3ccccc23)s1 (stereo not given) | 25.1 µM [falling, partial curve] |
| COCCCNc1nc(NCc2cccc(Cl)c2)c2cnn(C)c2n1 | 20 µM [falling, partial curve] |
| CCc1ccc(-n2nc(C)c3c(C)cc(=O)n(CC(=O)Nc4ccc(C(C)=O)cc4)c32)cc1 | 0.0251 µM [rising, full curve, poor fit] |
| COc1cc(OC)c(NC(=O)N2CC3CCCN3c3ccccc32)cc1Cl (stereo not given) | 15.8 µM [falling, partial curve] |
| CCC1CN(C(=O)N2CCC(C(=O)Nc3ccccc3F)CC2)c2ccccc2O1 (stereo not given) | 20 µM [falling, partial curve] |
| CC(C)(CC(=O)N1CCN(c2ccc(Cl)cc2)CC1)CC1=NS(=O)(=O)c2ccccc2N1 | 7.94 µM [falling, partial curve] |
| CCC(C)Sc1nc2c(c(=O)[nH]c(=O)n2C)n1C (stereo not given) | 12.6 µM [rising, partial curve] |
| Cc1ccc(CCNC(=O)c2ccc3c(Cl)c4c(nc3c2)CCCC4)cc1 | 6.31 µM [falling, partial curve] |
| Cc1ccc(C)c(N2CCN(c3c(CN4CCCC4)c(=O)oc4ccccc34)CC2)c1 | 39.8 µM [falling, single point] |
| O=C(Nc1cccc(Cl)c1Cl)c1cc(S(=O)(=O)NCc2ccc3c(c2)OCO3)ccc1F | 3.16 µM [falling, partial curve, poor fit] |
| Cc1cccc2cc(C#N)c(NCCNS(=O)(=O)c3ccc4c(c3)OCCO4)nc12 | 25.1 µM [falling, partial curve] |
| CCCCSc1nnc2c(n1)OC(c1ccc(Br)s1)N(C(C)=O)c1ccccc1-2 (stereo not given) | 1.58 µM [falling, full curve] |
| CSc1ccc(CCNC(=O)Cn2ccc3cc(S(=O)(=O)N4CCCCCC4)ccc32)cc1 | 2 µM [falling, partial curve, poor fit] |
| Cc1c(C(=O)Nc2ccc(C(=O)O)cc2)nnn1-c1ccccc1 | 10 µM [falling, partial curve] |
| Cc1ccc(CN2CCCN(CC(=O)Nc3ccc(C)cc3C)S2(=O)=O)cc1 | 25.1 µM [falling, single point] |
| O=C(Nc1ccc2c(c1)nc1n2CCOC1)c1ccco1 | 5.01 µM [falling, partial curve] |

Part of the list above, field by field:
CC(C)(CC(=O)N1CCN(c2ccc(Cl)cc2)CC1)CC1=NS(=O)(=O)c2ccccc2N1
  AC50: 7.94 µM [falling, partial curve]
CCC(C)Sc1nc2c(c(=O)[nH]c(=O)n2C)n1C (stereo not given)
  AC50: 12.6 µM [rising, partial curve]

Continued:

| Compound | AC50 |
| --- | --- |
| Cc1ccc(CNc2ccc3c(c2)OCO3)cc1 | 12.6 µM [falling, partial curve] |
| COc1ccc(CNC(=O)C2CCCN(S(=O)(=O)c3cccc4nsnc34)C2)cc1 (stereo not given) | 12.6 µM [falling, partial curve] |
| Cn1nnnc1SCCCNCc1cc(Cl)ccc1OCc1ccc(F)cc1 | 3.98 µM [rising, single point] |
| Nc1c(C(=O)Nc2ccc(OC(F)(F)F)cc2)sc2nc(-c3ccncc3)ccc12 | 12.6 µM [falling, partial curve] |
| Cc1nn2c(=O)cc(COC(=O)Cc3ccccc3)nc2s1 | 100 nM [rising, full curve] [measured here: IkB-luc green channel] |
| CCc1ccc(-c2cn3c(n2)sc2cc(C(=O)NC4CCCCC4)ccc23)cc1 | 3.16 µM [falling, full curve] |
| CC(=O)Nc1ccc(NS(=O)(=O)c2c(C(=O)N3CCC(C)CC3)c(C)n(C)c2C)cc1 | 0.0316 µM [rising, full curve, poor fit] |
| COc1cccc(C(=O)Nc2cccc(OCc3cc(=O)n4c5c(sc4n3)CCCC5)c2)c1 | 1.26 µM [falling, full curve] |
| COc1ccc2oc(=O)c(C(=O)NCCc3c(C)[nH]c4ccc(F)cc34)cc2c1 | 20 µM [falling, partial curve] |
| COCCNc1oc(-c2ccccc2)nc1S(=O)(=O)c1ccc(Br)cc1 | 39.8 µM [falling, single point] |
| COc1ccc2sc(N(Cc3cccnc3)C(=O)c3ccc4c(c3)OCCO4)nc2c1 | 31.6 µM [falling, single point] |
| COc1ccc(O)c(/C=c2/sc3nc4cc(C)c(C)cc4n3c2=O)c1 | 12.6 µM [falling, partial curve] |
| O=C1c2sc3nc4ccccc4n3c2C(=O)N1c1ccccc1Cl | 25.1 µM [falling, partial curve] |
| CCc1ccc(S(=O)(=O)N(C(=O)c2ccncc2)c2ccc3oc(C)c(C(=O)OC)c3c2)cc1 | 10 µM [falling, partial curve] |
| COc1ccc(CC(=O)N2CCc3cc(OC)c(OC)cc3C2COc2cc(C)cc(C)c2)cc1OC (stereo not given) | 7.94 µM [falling, partial curve] |
| O=C(Nc1ccc(-n2nncc2-c2ccco2)cc1)c1cccc(F)c1 | 15.8 µM [falling, partial curve] |
| CCOC(=O)c1ccc(N2C(=O)c3n[nH]c(-c4ccco4)c3C2c2ccc(C)cc2)cc1 (stereo not given) | 25.1 µM [falling, partial curve] |
| Cc1cc(C)cc(NC(=O)CCS(=O)(=O)c2cccc3nsnc23)c1 | 0.0501 µM [falling, full curve, poor fit] |
| COc1cccc(NC(=O)C(=O)NCC(c2ccc3c(c2)OCO3)N2CCN(C)CC2)c1 (stereo not given) | 0.2 µM [falling, partial curve] |
| CCn1cc(C(=O)NCc2ccco2)c(=O)c2cc(S(=O)(=O)N3CCc4ccccc4C3)ccc21 | 7.94 µM [falling, full curve, poor fit] |
